The chains are these.
B1: 51B12 parent (antibody, V domains shown)
VH: QVQLVESGGGVVQPGRSLRLSCAASGFTFSDYGMHWVRQAPGKGLEWVAYISSGGTTIYYADTVKGRFTISRDNSKNTLYLQMNSLRAEDTAVYYCARWTNLYAMDYWGQGTTVTVSS
VL: DIVLTQSPDSLAVSLGERATINCRASKSVSTSGYSYMHWYQQKPGQPPKFLIYLASNLESGVPDRFSGSGSGTDFTLTISSLQAEDVAVYYCQHSREVPYTFGGGTKVEIKR
B2: H3_W99H_VL-par (antibody, V domains shown)
VH: B1 VH with W99H
VL: B1 VL
B3: H2_T57H_L1 (antibody, V domains shown)
VH: B1 VH with T57H
VL: B1 VL with S32Q
B4: 51B12_VH_L1 (antibody, V domains shown)
VH: B1 VH
VL: B1 VL with S32Q
B5: H2_G66Q_VL-par (antibody, V domains shown)
VH: B1 VH with G66Q
VL: B1 VL
B6: H2_T56H_L1 (antibody, V domains shown)
VH: B1 VH with T56H
VL: B1 VL with S32Q
B7: H3_M105P_L1 (antibody, V domains shown)
VH: B1 VH with M105P
VL: B1 VL with S32Q
B8: H3_M105P_L2 (antibody, V domains shown)
VH: B1 VH with M105P
VL: B1 VL with L58K
B9: H3_W99H_L1 (antibody, V domains shown)
VH: B1 VH with W99H
VL: B1 VL with S32Q
B10: H2_G66Q_L2 (antibody, V domains shown)
VH: B1 VH with G66Q
VL: B1 VL with L58K
B11: H2_T63Y_L2 (antibody, V domains shown)
VH: B1 VH with T63Y
VL: B1 VL with L58K
B12: H2_T57H_VL-par (antibody, V domains shown)
VH: B1 VH with T57H
VL: B1 VL
B13: H3_W99H_L2 (antibody, V domains shown)
VH: B1 VH with W99H
VL: B1 VL with L58K
B14: H2_T63Y_VL-par (antibody, V domains shown)
VH: B1 VH with T63Y
VL: B1 VL
B15: H2_Y60K_L2 (antibody, V domains shown)
VH: B1 VH with Y60K
VL: B1 VL with L58K
B16: H2_T63Y_L1 (antibody, V domains shown)
VH: B1 VH with T63Y
VL: B1 VL with S32Q
B17: H3_M105P_VL-par (antibody, V domains shown)
VH: B1 VH with M105P
VL: B1 VL
B18: H2_T56H_L2 (antibody, V domains shown)
VH: B1 VH with T56H
VL: B1 VL with L58K
B19: 51B12_VH_L2 (antibody, V domains shown)
VH: B1 VH
VL: B1 VL with L58K
B20: H2_K65P_L2 (antibody, V domains shown)
VH: B1 VH with K65P
VL: B1 VL with L58K
B21: H2_T57H_L2 (antibody, V domains shown)
VH: B1 VH with T57H
VL: B1 VL with L58K
B22: H2_K65P_L1 (antibody, V domains shown)
VH: B1 VH with K65P
VL: B1 VL with S32Q
B23: H2_T56H_VL-par (antibody, V domains shown)
VH: B1 VH with T56H
VL: B1 VL
B24: H2_G66Q_L1 (antibody, V domains shown)
VH: B1 VH with G66Q
VL: B1 VL with S32Q
B25: H2_K65P_VL-par (antibody, V domains shown)
VH: B1 VH with K65P
VL: B1 VL
B26: H2_Y60K_L1 (antibody, V domains shown)
VH: B1 VH with Y60K
VL: B1 VL with S32Q
B27: H2_Y60K_VL-par (antibody, V domains shown)
VH: B1 VH with Y60K
VL: B1 VL

By UniProt entry, the sequences of proteins in these tests, tags left out.
UniProt Q95KA5: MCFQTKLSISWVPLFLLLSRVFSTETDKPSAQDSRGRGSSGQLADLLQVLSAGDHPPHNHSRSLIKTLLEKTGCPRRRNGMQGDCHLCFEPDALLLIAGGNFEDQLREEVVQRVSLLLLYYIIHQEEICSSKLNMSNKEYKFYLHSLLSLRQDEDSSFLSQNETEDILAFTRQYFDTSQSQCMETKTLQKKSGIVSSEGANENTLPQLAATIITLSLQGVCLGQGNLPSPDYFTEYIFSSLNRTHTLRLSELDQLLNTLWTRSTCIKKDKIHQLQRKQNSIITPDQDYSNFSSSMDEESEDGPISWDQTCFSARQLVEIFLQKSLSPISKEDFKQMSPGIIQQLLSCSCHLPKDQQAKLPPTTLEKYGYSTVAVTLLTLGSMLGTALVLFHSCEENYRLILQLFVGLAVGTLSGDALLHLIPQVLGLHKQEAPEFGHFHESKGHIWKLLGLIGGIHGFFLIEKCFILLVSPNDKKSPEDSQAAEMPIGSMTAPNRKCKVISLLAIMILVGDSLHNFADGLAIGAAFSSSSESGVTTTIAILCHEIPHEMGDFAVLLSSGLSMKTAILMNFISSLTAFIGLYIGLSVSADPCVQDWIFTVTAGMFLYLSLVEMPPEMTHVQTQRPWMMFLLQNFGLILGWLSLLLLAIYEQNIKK

Changes are numbered by the printed parent chain. No constants are given. Whether binding was seen depends on the method and setting. Some results given as binding are weak or reduced against the parent protein; the word gives no strength.

For the first test, the target named is ZIP12 full length protein over-expressed on CHO-Ki cells (Homo sapiens (Human)) (UniProt Q504Y0). Briefly: flow cytometry on CHO-Ki cells over-expressing ZIP12.
In the case of B1, the binding entry is recorded as “binds”.

In the next test the target is huZIP12-ECD-GST (human) (UniProt Q504Y0). Briefly: HTRF competition: unlabelled antibody against Tb-labelled 51B12-parent on hZIP12-ECD-GST, detected with anti-GST-XL665.
With B1, the binding result was “binds”.

The target is the same in the next test. Briefly: summary of the three screening assays of the affinity-matured clones (one is the HTRF inhibition assay; the excerpt does not name the other two).
Turning to B2, the binding result was “binds”.

In the next test the target is ZIP12 full length protein over-expressed on CHO-Ki cells (Homo sapiens (Human)) (UniProt Q504Y0). Briefly: flow cytometry, Alexa Fluor 647: CHO cells over-expressing human ZIP12 (CHO-hZip12) against CHO parent cells.
With B1, the binding result is reported as “binds”.

Another test has as its target huZIP12-ECD-GST (human) (UniProt Q504Y0). Briefly: SPR single cycle kinetics, mAb captured on protein A, 3.12-800 nM huZIP12-ECD-GST.
Turning to B3, the binding entry is “binds”.
Still for that read-out and setting: the same measure for B4: “binds”; for B5: “binds”; for B6: “binds”.
Turning to B7, the binding entry is given as “binds”.
The same measure, in the same setting: the same measure for B8: “binds”; for B9: “binds”.
On the same count and under the same terms, the same measure for B10: “binds”; for B11: “binds”.
Same read-out and setting: with B12 the entry was “binds”; with B13, “binds”; with B14, “binds”.
With B15, the binding entry is listed as “binds”.
Still for that read-out and setting: the same measure for B16: “binds”.
On the same count and under the same terms, the same measure for B17: “binds”; for B18: “binds”; for B19: “binds”.
For B20, the binding entry was “binds”.
The same measure, in the same setting: the same measure for B21: “binds”; for B22: “binds”; for B23: “binds”.
B24: the binding entry was “binds”.
On the same count and under the same terms, the same measure for B25: “binds”.
As for B2, the binding result is “binds”.
For B26, the binding result is “binds”.
Still for that read-out and setting: with B27 the entry was “binds”.

For another test the target is unchanged. Briefly: SPR single cycle kinetics, mAb captured on protein A.
For the molecule B9, the binding entry is listed as “binds”.

A further test has as its target cynomolgus monkey ZIP12-ECD-GST (cynomolgus monkey) (UniProt Q95KA5). Described as above.
For B9, the binding entry is on record as “binds”.

For the origin of these results see US20260109761A1.
